In experiment [1] the target is IL-1RAP recombinant protein (ELISA) (UniProt Q9NPH3). In words: ELISA; BSA as negative control. Background: ELISA stands for enzyme-linked immunosorbent assay.
The target is the same in experiment [2]. In words: sandwich ELISA: coated anti-human Fc antibody, IL-1RAP protein, #E3C3, anti-mouse Fc-HRP.

Sequences of proteins named here, by UniProt entry; tags and fusion partners are left off. Residues count along the entry.
UniProt Q9NPH3, residues 21-359: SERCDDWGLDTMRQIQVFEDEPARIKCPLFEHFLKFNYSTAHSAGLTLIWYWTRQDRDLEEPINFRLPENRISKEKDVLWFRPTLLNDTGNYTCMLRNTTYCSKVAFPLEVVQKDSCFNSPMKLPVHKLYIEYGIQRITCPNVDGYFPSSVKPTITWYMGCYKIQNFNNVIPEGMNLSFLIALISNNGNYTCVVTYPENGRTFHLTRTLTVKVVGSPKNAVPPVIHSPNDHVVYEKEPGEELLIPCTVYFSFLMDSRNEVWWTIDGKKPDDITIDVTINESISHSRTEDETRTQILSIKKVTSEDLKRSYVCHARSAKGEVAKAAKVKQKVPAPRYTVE

These are yes or no findings as the source states them, for the method shown. Some results given as binding are weak or reduced against the parent protein; the word gives no strength.

B1: mouse anti-hIL-1RAP monoclonal antibody, clone #E3C3 (antibody, V domains shown)
VH: QVQLQQPGAELMMPGASVKVSCEASGYTFTDSWMHWVKQRPGQGLEWIGAIDPSDSYTTYNQKFTGKATLSVDESSNTAYMQLSSLTSEDSAVYYCARYYSGSNYISPFPYWGQGTLVTVSA
VL: DIVMTQSHKFMSTSVGDRVTITCKASLDVSTAVAWYQQKPGQSPKLLIYSASYRYTGVPDRFTGSGSGTDFTFTISSVQAEDLAVYYCQQHYSPPFTFGSGTNLEIK
As to B1, the binding result in experiment [1] and in experiment [2] was “binds” in each case.

The values above are taken from patent US20220235138A1, “CAR-T CELLS TARGETING IL-1RAP AND THEIR USE IN ACUTE MYELOID LEUKEMIA (AML)” (ETABLISSEMENT FRANCAIS DU SANG, priority 2019, published 2022).
